# In PubChem BioAssay AID248 (DTP/NCI, 2004):
# The list shows only some results of the screen, not a fair sample: it gathers tests that were run many times, whatever their T/C, doses with no T/C, and many T/C values between a quarter and a half above the control. Further doses and runs are listed elsewhere. T/C gives the treated animals as a percentage of the vehicle group. Some entries give survivors of the animals treated and no T/C: the source files T/C as zero there, which appears to mark a toxic dose or a test without result, not a measured value. Some survivor counts are full or nearly so, which does not show that the dose was tolerated: survival well below the control is almost never listed, so the zero probably covers shortened survival too. Counts of survivors are from the toxicity check (mostly the fifth day) where no day follows; animals may have died later. Schedule codes are those of the source, read here as Q, the interval in days (D) or hours (H), X, the number of doses. Some schedule codes hold Z or #, which are not explained here. Some doses were run more than once; their values stand side by side, smallest first. Some structures stand for samples that the source files as different forms (salt, stereo form or complex); doses refer to the form tested. For survival time, the PubChem record calls one and a half times the control and up active, and a quarter to a half above the control has no call in these data; cut-offs in other NCI protocols can differ. Some T/C values are followed by the survivors on the day toxicity was checked, most often the fifth; where none is given, no animal had died by that day.
# Tested on: L1210 leukemia ip in BDF1 mice, survival T/C
# Experiment: NCI In Vivo Anticancer Drug Screen. Data for tumor model L1210 Leukemia (intraperitoneal) in B6D2F1 (BDF1) mice
# Conditions: T/C endpoint: mean survival time, higher T/C = longer survival
# [1] = dose: 100.0 mg/kg/injection, schedule: Q01DX009 (ip), vehicle: saline with Tween-80
# [2] = dose: 200.0 mg/kg/injection, schedule: Q01DX009 (ip), vehicle: saline with Tween-80
# [3] = dose: 400.0 mg/kg/injection, schedule: Q04DX003 (ip), vehicle: Klucel (hydroxypropylcellulose) (HPC)
# [4] = dose: 300.0 mg/kg/injection, schedule: Q01DX001 (ip), vehicle: saline
# [5] = dose: 200.0 mg/kg/injection, schedule: Q04DX002 (ip), vehicle: Klucel (hydroxypropylcellulose) (HPC)
# [6] = dose: 400.0 mg/kg/injection, schedule: Q04DX002 (ip), vehicle: Klucel (hydroxypropylcellulose) (HPC)
# [7] = dose: 40.0 mg/kg/injection, schedule: Q01DX001 (ip), vehicle: saline
# [8] = dose: 400.0 mg/kg/injection, schedule: Q01DX001 (ip), vehicle: saline
# [9] = dose: 200.0 mg/kg/injection, schedule: Q04DX003 (ip), vehicle: saline
# [10] = dose: 400.0 mg/kg/injection, schedule: Q04DX003 (ip), vehicle: saline with Tween-80
# [11] = dose: 400.0 mg/kg/injection, schedule: Q01DX009 (ip), vehicle: Klucel (hydroxypropylcellulose) (HPC)
# [12] = dose: 400.0 mg/kg/injection, schedule: Q01DX001 (ip), vehicle: carboxymethylcellulose (CMC)
# [13] = dose: 400.0 mg/kg/injection, schedule: Q01DX009 (ip), vehicle: other
# [14] = dose: 400.0 mg/kg/injection, schedule: Q01DX009 (ip), vehicle: saline
# [15] = dose: 100.0 mg/kg/injection, schedule: Q04DX003 (ip), vehicle: saline
# [16] = dose: 400.0 mg/kg/injection, schedule: Q04DX003 (ip), vehicle: saline
# [17] = dose: 200.0 mg/kg/injection, schedule: Q01DX009 (ip), vehicle: saline
smiles,measurement,setting,value
O=C[CH2][Hg][Cl],survivor count,"dose: 50.0 mg/kg/injection, schedule: Q01DX009 (ip), vehicle: saline with Tween-80",0 of 3
same,survivor count,[1],0 of 3
same,survivor count,[2],0 of 3
CC1(C)c2ccccc2C(O)(CCl)c2ccccc21,survivor count,[1],6 of 6
same,survivor count,[2],0 of 6
same,survivor count,"dose: 400.0 mg/kg/injection, schedule: Q01DX009 (ip), vehicle: saline with Tween-80",0 of 6
CC(=O)CC(=O)Oc1ccccc1OC(C)=O,survivor count,[3],1 of 6
Nc1cc(N)nc(S(=O)O)n1,survivor count,"dose: 200.0 mg/kg/injection, schedule: Q04DX003 (ip), vehicle: Klucel (hydroxypropylcellulose) (HPC)",2 of 6
same,survivor count,[3],0 of 6
COc1cc2c(cc1OC)C1=[N+](CCC1)CC2,survivor count,[4],2 of 6
Cc1nc(Br)c(Br)n1C,survivor count,[5],3 of 3
same,survivor count,[6],0 of 3
same,survivor count,"dose: 400.0 mg/kg/injection, schedule: Q04DX002 (ip), vehicle: carboxymethylcellulose (CMC)",0 of 3 and 1 of 6
same,survivor count,"dose: 400.0 mg/kg/injection, schedule: Q04DX003 (ip), vehicle: carboxymethylcellulose (CMC)",6 of 6
Nc1ncnc2c1nnn2C1CC(CO)C(O)C1O (configuration not stated),T/C,"dose: 100.0 mg/kg/injection, schedule: Q04DX003 (ip), vehicle: other",126 % of control
BrCc1cccc(C[P+](c2ccccc2)(c2ccccc2)c2ccccc2)c1,survivor count,[7],1 of 4
same,survivor count,"dose: 80.0 mg/kg/injection, schedule: Q01DX001 (ip), vehicle: saline",0 of 4
same,survivor count,"dose: 100.0 mg/kg/injection, schedule: Q01DX001 (ip), vehicle: saline",2 of 4
same,survivor count,"dose: 200.0 mg/kg/injection, schedule: Q01DX001 (ip), vehicle: saline",0 of 4
same,survivor count,[8],0 of 4
Cc1cccc(C)c1N=C(N)NN,survivor count,[9],1 of 6
same,survivor count,[8],0 of 6
CC1(O)CSC(C)(O)CS1 (configuration not stated),survivor count,"dose: 25.0 mg/kg/injection, schedule: Q04DX002 (ip), vehicle: saline with Tween-80",3 of 3
CC(C)(C)c1ccc(P(=O)(O)C(C)(C)C)cc1,survivor count,[4],1 of 6
CN(CCc1ccccc1)C(N)=S,survivor count,"dose: 150.0 mg/kg/injection, schedule: Q01DX001 (ip), vehicle: acetone",2 of 6
same,survivor count,"dose: 300.0 mg/kg/injection, schedule: Q01DX001 (ip), vehicle: acetone",0 of 6
CC1OC(O[C@@H]2C=C3CC[C@@H]4[C@H](CC[C@]5(C)[C@@H](c6ccc(=O)oc6)CC[C@]45O)[C@@]3(C)CC2)C(O)C(O)C1O (some centres not stated),survivor count,"dose: 20.0 mg/kg/injection, schedule: Q01DX001 (ip), vehicle: saline",3 of 6
same,survivor count,[7],0 of 6
COc1ccc(CCC2=NCCN2)cc1OC,survivor count,[10],2 of 6
CC(=O)OCC1OC(n2cnc3c(=S)nc(N)[nH]c32)CC1OC(C)=O (configuration not stated),T/C,"dose: 5.0 mg/kg/injection, schedule: Q01DX002 (ip), vehicle: Klucel (hydroxypropylcellulose) (HPC)",134 % of control
same,T/C,"dose: 20.0 mg/kg/injection, schedule: Q04DX003 (ip), vehicle: Klucel (hydroxypropylcellulose) (HPC)",131 % of control
same,T/C,"dose: 40.0 mg/kg/injection, schedule: Q04DX003 (ip), vehicle: Klucel (hydroxypropylcellulose) (HPC)",145 % of control
CC1=CC(=O)C=CC1(C)C,survivor count,[11],1 of 6
c1ccc(C2COC3(CCCCC3)O2)cc1 (configuration not stated),survivor count,"dose: 500.0 mg/kg/injection, schedule: Q01DX Z (ip), vehicle: methylcellulose (MC)",6 of 6
O=[N+]([O-])c1ccc(O)c(C2N(Cc3ccc(N(CCCl)CCCl)cc3)CCCN2Cc2ccc(N(CCCl)CCCl)cc2)c1,survivor count,[12],2 of 4
CCSCCOP(=O)(N(C)C)N(C)C,survivor count,[5],3 of 3
same,survivor count,[6],1 of 3
CC1(C)N=C(N)N=C(N)N1c1ccc(OCCOc2ccc(NC(=O)CBr)cc2)cc1,T/C,"dose: 176.0 mg/kg/injection, schedule: Q01DX009 (ip), vehicle: saline",138 % of control [5 of 6 alive]
same,survivor count,"dose: 264.0 mg/kg/injection, schedule: Q01DX009 (ip), vehicle: other",1 of 6
same,T/C,"dose: 266.0 mg/kg/injection, schedule: Q01DX009 (ip), vehicle: saline",132 % of control
same,survivor count,[13],0 of 6
same,survivor count,[14],4 of 6
same,survivor count,"dose: 600.0 mg/kg/injection, schedule: Q01DX009 (ip), vehicle: other",0 of 6
same,survivor count,"dose: 600.0 mg/kg/injection, schedule: Q01DX009 (ip), vehicle: saline",1 of 6
O=C(O)c1cccc(C#Cc2ccccc2)c1,survivor count,"dose: 400.0 mg/kg/injection, schedule: Q01DX001 (ip), vehicle: Klucel (hydroxypropylcellulose) (HPC)",3 of 6
CC1=C2[C@H]3OC(=O)[C@H](C)[C@@H]3CC[C@@]2(C)C=CC1=O,survivor count,"dose: 400.0 mg/kg/injection, schedule: Q01DX001 (ip), vehicle: other",2 of 6
CCSc1nc(N)c(C(N)=O)cc1C#N,survivor count,[11],5 of 6
O=[N+]([O-])c1cccc(S(=O)(=O)SC(Cl)(Cl)Cl)c1,survivor count,"dose: 50.0 mg/kg/injection, schedule: Q04DX003 (ip), vehicle: saline",3 of 3
same,survivor count,[15],0 of 3 and 1 of 3
same,survivor count,[9],0 of 3
same,survivor count,[16],0 of 3
CCN(CC)CCOC(=O)c1ccc(N)cc1,survivor count,[17],0 of 6 and 2 of 6
same,survivor count,[9],2 of 4
same,survivor count,[14],0 of 6
same,survivor count,[16],0 of 4
Nc1ccn(CC(=O)c2ccco2)c(=O)n1,survivor count,[17],2 of 6
same,survivor count,[14],0 of 6
same,survivor count,[16],3 of 6
O=c1[nH]cnc2nncnc12,survivor count,"dose: 100.0 mg/kg/injection, schedule: Q01DX001 (ip), vehicle: carboxymethylcellulose (CMC)",0 of 4
same,survivor count,"dose: 200.0 mg/kg/injection, schedule: Q01DX001 (ip), vehicle: carboxymethylcellulose (CMC)",0 of 4
same,survivor count,[12],0 of 4
Cc1cc(N=[N+]([O-])c2ccc(N)c(C)c2)ccc1N,survivor count,"dose: 100.0 mg/kg/injection, schedule: Q01DX009 (ip), vehicle: saline",5 of 6
Cc1ccc(NC(=O)Oc2ccc(F)cc2)cc1NC(=O)Oc1ccc(F)cc1,survivor count,"dose: 200.0 mg/kg/injection, schedule: Q01DX009 (ip), vehicle: other",4 of 6
same,survivor count,[13],0 of 6
CC(C)COC(=O)CCCc1ccc(N(CCCl)CCCl)cc1,survivor count,"dose: 400.0 mg/kg/injection, schedule: Q04DX002 (ip), vehicle: saline",1 of 3
O=C(NO)c1cc(Cl)c(C(=O)NO)cc1Cl,survivor count,[13],6 of 6
O=C(C(=O)N1CC2OC2C1)N1CC2OC2C1 (configuration not stated),survivor count,"dose: 400.0 mg/kg/injection, schedule: Q04DX002 (ip), vehicle: saline with Tween-80",0 of 3
O=NN(C(=O)Nc1ccccc1)C1CCCCC1,survivor count,"dose: 300.0 mg/kg/injection, schedule: Q01DX001 (ip), vehicle: carboxymethylcellulose (CMC)",3 of 6
CC1=CC(=O)NC1=O,survivor count,[15],5 of 6
same,survivor count,[9],1 of 6
same,survivor count,[16],0 of 6
O=C(COc1ccccc1)CC(O)(C(F)(F)F)C(F)(F)F,survivor count,[10],6 of 6
